Experimental data reported in paper PMC7663799, “Endocytosis and Trafficking of Heparan Sulfate Proteoglycans in Triple-Negative Breast Cancer Cells Unraveled with a Polycationic Peptide” (International Journal of Molecular Sciences, 2020).

Test system: Rab5
Assay: Colocalization of NT4 with Rab5 (Rab5A antibody)
Format: cell-based, human
Conditions: MDA-MB-231

(pyELYENKPRRPYIL)4K2K-beta-Ala [NT4]
Pearson coefficient of NT4 with Rab5 (n = 11, SD ± 0.06): 0.51
colocalization rate of NT4 with Rab5 (n = 11, SD ± 13): 39%
